From patent US11352350B2, “IRAK degraders and uses thereof” (Kymera Therapeutics, Inc., priority 2018, dated 2022)

The chains behind the UniProt entries cited, without tags or fusion partners.
UniProt Q9NWZ3, whole entry: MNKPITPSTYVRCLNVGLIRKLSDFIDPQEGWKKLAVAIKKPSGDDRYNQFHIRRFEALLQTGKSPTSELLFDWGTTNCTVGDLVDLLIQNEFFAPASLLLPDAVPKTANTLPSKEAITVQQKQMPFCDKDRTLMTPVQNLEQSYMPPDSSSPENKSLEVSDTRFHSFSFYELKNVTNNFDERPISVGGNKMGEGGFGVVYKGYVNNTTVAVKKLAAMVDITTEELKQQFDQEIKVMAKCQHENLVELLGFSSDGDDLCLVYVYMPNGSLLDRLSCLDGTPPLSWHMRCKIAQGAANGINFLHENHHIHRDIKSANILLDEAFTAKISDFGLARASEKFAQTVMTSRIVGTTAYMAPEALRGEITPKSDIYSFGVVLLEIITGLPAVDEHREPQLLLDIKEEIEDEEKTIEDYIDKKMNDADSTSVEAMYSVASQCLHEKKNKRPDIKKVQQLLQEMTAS

Experiments:
IRAK4 = IRAK4 (Homo sapiens (Human), UniProt Q9NWZ3); test: IRAK4 MSD degradation in OCI-LY10; type: cell-based; settings: read-out: IRAK4 MSD degradation in OCI-LY10 at 4 hrs: Average external-Abs DC50, OCI-LY10, 4 hrs
OCI-LY10 = test: CTG Cell Viability Assay - OCI-LY10; settings: read-out: CTG Cell Viability Assay - OCI-LY10: Average external-IC50; OCI-LY10, 4 days

In the case of Cn1c(=O)n(C2CCC(=O)NC2=O)c2cccc(CCCOC3CCN(C[C@H]4CC[C@H](n5cc(NC(=O)c6cnn7ccc(N[C@@H]8CCCC[C@@H]8O)nc67)c(C(F)F)n5)CC4)CC3)c21 (relative stereo), the DC50 (IRAK4) is reported as 10 to 100 nM and the IC50 (OCI-LY10) is reported as > 1000 nM.

The structures given here were assigned with low confidence; some may be wrong.
